# According to patent US20190049436A1, “MODULATION OF ASYMMETRIC PROLIFERATION” (THE GENERAL HOSPITAL CORPORATION, priority 2012, published 2019):
# “Also recorded” adds a separate entry of the source. At least one compound was matched to its structure with a doubt left.
# What was measured:
# HCT116 cells = assay: Confocal immunofluorescence scoring of asymmetrically dividing and G0-like (H3K9me2low/MCM2low/HES1high) cells; type: cell-based, human
# Experimental: (§1) Drug treatment in vitro. Cells were seeded onto collagen IV-coated coverslips, allowed to attach overnight, and treated with vehicle (DMSO) or AKT1/2 inhibitor (HCT116: 20μM; MCF7: 2 μM) (Sigma), MK2206 (HCT116: 10 μM; MCF7: 3 μM) (Selleck Chemicals), TORIN1 (HCT116: 0.5 μM; MCF7: 0.25 μM) (Tocris Bioscience), AZD8055 (HCT116: 0.7 μM; MCF7: 0.1 μM) (Selleck Chemicals), INK128 (HCT116: 0.05 μM; MCF7: 0.01 μM) (Active Biochem), Palomid 529 (HCT116: 10 μM; MCF7: 20 μM) (Selleck Chemicals), (Rapamycin (HCT116: 20 μM; MCF7: 20 μM)(Sigma), RAD-001 (HCT116: 10 μM; MCF7: 5 μM) (Selleck Chemicals), (AZD5363 (HCT116: 50 μM; MCF7: 5 μM) (Active Biochem), GDC0068 (HCT116: 50 μM; MCF7: 5 μM) (Active Biochem) for 72 h and Bortezemib (HCT116: 1 μM; MCF7: 4 μM) (Selleck Chemicals) MG-132 (vehicle: ethanol) (HCT116: 1 μM; MCF7: 10 μM), for 24 h.
# (§2) Immunofluorescence staining. For bulk populations and for colonies, cells were grown directly on collagen IV-coated coverslips (Sigma). Cells were fixed in 3.7% formalin, permeabilized using 0.1% Triton X-100, and treated with 0.1% SDS. They were blocked in 1% BSA and then incubated with primary antibody (α-H3K9me2 (Abcam); α-MCM2 and α-Tubulin (Cell Signaling), α-Hes1 and α-TTC3 (Abnova)) diluted in blocking solution, washed, and incubated with the respective secondary antibody. Cells were mounted using hard-set mounting media containing DAPI (Vector Laboratories). All secondary antibodies were Alexa Fluor conjugates (488, 555, 568, 633, and 647) (Invitrogen). Immunofluorescence imaging (on a Nikon Eclipse Ti A1R-A1 confocal microscope) and live-cell imaging (on the Nikon Biostation CT platform) were performed as previously described (1).
# (§3) Drug treatment in vitro. Cells were seeded onto collagen IV-coated coverslips, allowed to attach overnight, and treated with vehicle (DMSO) or AKT1/2 inhibitor (HCT116: 20 μM; MCF7: 2 μM) (Sigma), MK2206 (HCT116: 10 μM; MCF7: 3 μM) (Selleck Chemicals), TORIN1 (HCT116: 0.5 μM; MCF7: 0.25 μM) (Tocris Bioscience), AZD8055 (HCT116: 0.7 μM; MCF7: 0.1 μM) (Selleck Chemicals), INK128 (HCT116: 0.05 μM; MCF7: 0.01 μM) (Active Biochem), Palomid 529 (HCT116: 10 μM; MCF7: 20 μM) (Selleck Chemicals), (Rapamycin (HCT116: 20 μM; MCF7: 20 μM)(Sigma), RAD-001 (HCT116: 10 μM; MCF7: 5 μM) (Selleck Chemicals), BKM-120 (HCT116: 1.5 μM; MCF7: 0.5 μM) (Active Biochem), FAK inhibitors (PF-562271: 1 μM Pfizer) and NVP-TAE226 : 1 μM (Novartis), for both cell lines) for 72 h and Bortezemib (HCT116: 1 μM; MCF7: 4 μM) (Selleck Chemicals) MG-132 (vehicle: ethanol) (HCT116: 1 μM; MCF7: 10 μM), for 24 h.
# (§4) Immunofluorescence staining. For bulk populations and for colonies, cells were grown directly on collagen IV-coated coverslips (Sigma). […]
# MCF7 cells = assay: as above; type: cell-based, human
# Experimental: as §1, §2, §3, §4
smiles,measurement,setting,value
CO[C@H]1C[C@@H]2CC[C@@H](C)[C@@](O)(O2)C(=O)C(=O)N2CCCC[C@H]2C(=O)O[C@H]([C@H](C)C[C@@H]2CC[C@@H](O)[C@H](OC)C2)CC(=O)[C@H](C)/C=C(\C)[C@@H](O)[C@@H](OC)C(=O)[C@H](C)C[C@H](C)/C=C/C=C/C=C/1C [Rapamycin],frequency of asymmetrically dividing and G0-like cells,"HCT116 cells; HCT116, small molecule for 72 h at the single dose (low, non-antiproliferative or target-suppressing), vs DMSO control",did not suppress; also recorded: not suppressed
same,production of G0-like cells,"HCT116 cells; wild-type HCT116, target-suppressing doses, 72 hours or 144 hours",not suppressed
same,frequency of asymmetrically dividing and G0-like cells,"MCF7 cells; MCF7, small molecule for 72 h at the single dose (low, non-antiproliferative or target-suppressing), vs DMSO control",did not suppress; also recorded: not suppressed
same,production of G0-like cells,"MCF7 cells; wild-type MCF7, target-suppressing doses, 72 hours or 144 hours",not suppressed
